This is one part of the list.

Data on 42 sequences can be found in article PMC7819943, “Rice protein-binding microarrays: a tool to detect cis-acting elements near promoter regions in rice”.

The target of the experiment is T1, OsSMF1 (Oryza sativa, UniProt Q6ZLB0 1-436).
T1 sequence: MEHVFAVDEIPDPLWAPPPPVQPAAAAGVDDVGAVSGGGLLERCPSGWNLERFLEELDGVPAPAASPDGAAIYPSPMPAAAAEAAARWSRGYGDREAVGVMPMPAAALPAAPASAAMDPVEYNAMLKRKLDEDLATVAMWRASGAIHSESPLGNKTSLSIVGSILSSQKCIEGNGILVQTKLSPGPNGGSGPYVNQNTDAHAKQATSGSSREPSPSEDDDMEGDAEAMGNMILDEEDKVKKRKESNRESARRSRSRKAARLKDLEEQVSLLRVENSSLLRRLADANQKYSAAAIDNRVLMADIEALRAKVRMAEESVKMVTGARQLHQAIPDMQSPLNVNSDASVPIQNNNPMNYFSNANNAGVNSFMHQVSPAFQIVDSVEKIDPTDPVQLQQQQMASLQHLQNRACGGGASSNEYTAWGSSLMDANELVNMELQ
Put plainly: protein-binding microarray (RPBM); PBS, 2% BSA, 51.3 ng/ul salmon testes DNA, 50 uM zinc acetate, 200 nM TF, 25 C, 1 h; high values mean tight binding. The settings on record: protein: recombinant; tags: N-terminal polyhistidine and DsRed monomer fusion (pET32a); chain copies: 2; label: CyDye5-dUTP incorporated in the synthesized complementary strand; 3' TTTTT single-stranded linker to array surface; dsDNA, one strand shown. In outline: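 The binding signal is fluorescence intensity per feature, in arbitrary units, read on an Axon 4000B scanner. Polyhistidine- and DsRed-tagged transcription factors (N-terminal fusions) from E. coli BL21-CodonPlus were purified on Ni–NTA and applied at 200 nM for 1 h at 25 °C to a double-stranded, BSA-blocked custom Agilent array in buffer with 50 µM zinc acetate.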
With “ACACCCATCCATCACATCACCACATCACCAACAATGGCATCGGAGTCACCTAGTGCAG”, the binding signal was 5150 fluorescence intensity (a.u.).

In the case of “TTAACAATGAGACCCTTGGCTACTTTATTGGAAGGGTCTACGGAGTCACCTAGTGCAG”, the binding signal was 12200 fluorescence intensity (a.u.).

As for “GATTTGATTCGTCATCAAATGTTCTTTAAGCATGACATAACGGAGTCACCTAGTGCAG”, the binding signal was 3710 fluorescence intensity (a.u.).

For the sequence “ATTGGTGTTGGTTGGTACGCTGGTTGGTGACCATGCAGTTCGGAGTCACCTAGTGCAG”, the binding signal was 4250 fluorescence intensity (a.u.).

“CCCTTTACACTTGCTTATCCAGTCATAGTTGCCTTACCAGCGGAGTCACCTAGTGCAG”: the binding signal was 5040 fluorescence intensity (a.u.).

Take “ACCAAATTTTAGCAATACCAAAATTTTGGCATAGTTGCCACGGAGTCACCTAGTGCAG”: the binding signal was 7010 fluorescence intensity (a.u.).

“CTTGATACAGAGAGAAATTAAGTGCAAGTGTGTGACACGTCGGAGTCACCTAGTGCAG”: the binding signal was 5600 fluorescence intensity (a.u.).

In the case of “GTGCCCGTCTGTTGAACTGCCTTCATGGCAAGGATGTCACCGGAGTCACCTAGTGCAG”, the binding signal was 4310 fluorescence intensity (a.u.).

For “CCTAAAATACATGACCAGCCCACACAGGACTTAACCCACACGGAGTCACCTAGTGCAG”, the binding signal was 3230 fluorescence intensity (a.u.).

As to “TGTATCTCAAAATAGTGACCTCACCATATTGTCATCCTTTCGGAGTCACCTAGTGCAG”, the binding signal was 3160 fluorescence intensity (a.u.).

As to “GTGGCAGCGCCAGCGAGCTCGTCATCGTCGTCGTCGTCGGCGGAGTCACCTAGTGCAG”, the binding signal is 15700 fluorescence intensity (a.u.).

Turning to “TTACTTCCTCCATTTCATAATGTGAGTCATTCTAGCATTTCGGAGTCACCTAGTGCAG”, the binding signal was 7570 fluorescence intensity (a.u.).

Take “TTCCTCCAGACATCAACCACCTTCCAGGTGGCGGCGGCCGCGGAGTCACCTAGTGCAG”: the binding signal was 3290 fluorescence intensity (a.u.).

“GGTTAACTTTGATTCACATTCCAACTCATCCATTTTCTAACGGAGTCACCTAGTGCAG”: the binding signal is 3890 fluorescence intensity (a.u.).

Take “ATGGCTGTTGATTTTAATAGTGCAGGAGTGGTTTATAGCTCGGAGTCACCTAGTGCAG”: the binding signal was 4220 fluorescence intensity (a.u.).

In the case of “GCGTGGGGCCCGTGCTGTCAGTGAGACGTGGCGCTGCGCCCGGAGTCACCTAGTGCAG”, the binding signal was 7700 fluorescence intensity (a.u.).

Turning to “TTAAAGTAGCTTTACACGTAAATCGGACGCTGACGTCAGCCGGAGTCACCTAGTGCAG”, the binding signal was 28400 fluorescence intensity (a.u.).

Turning to “AATTTCCACGGTCCACGGGCCGGCCCCACTGCCCAGTCAGCGGAGTCACCTAGTGCAG”, the binding signal was 6030 fluorescence intensity (a.u.).

On to “TGTTCCAACCCGCTCCGTGTGCTGACGTGGCATGACATGGCGGAGTCACCTAGTGCAG”, for which the binding signal is 44900 fluorescence intensity (a.u.).

Consider “CGCTGCTGAGTGCTGACTCCTTCGCCCTCCTCCTCACTTTCGGAGTCACCTAGTGCAG”, for which the binding signal was 7650 fluorescence intensity (a.u.).

“GTCATACACAATGAGGTCTAAGTCAAATCGAGTCAACGAGCGGAGTCACCTAGTGCAG”: the binding signal is 3280 fluorescence intensity (a.u.).

Turning to “GAATCGTCTAGTTCTCTGGTTAAAGGGTACGAATCAATTCCGGAGTCACCTAGTGCAG”, the binding signal is 4260 fluorescence intensity (a.u.).

With “GAAGAACGCGTCAGGTCACTGGAGAGCATCGCTACCTCGCCGGAGTCACCTAGTGCAG”, the binding signal was 3400 fluorescence intensity (a.u.).

Take “GATTCGCGACACGGCACGGTACAGTCATTAACAAGGCCAGCGGAGTCACCTAGTGCAG”: the binding signal is 6320 fluorescence intensity (a.u.).

As to “AAATATTTTCAGTCTACTTAGTGACACAGCGTCCAATTTTCGGAGTCACCTAGTGCAG”, the binding signal was 6410 fluorescence intensity (a.u.).

For the sequence “CCGCAGCTTGTGAAGTATGGAAAGCGATCAAATTCGAGTTCGGAGTCACCTAGTGCAG”, the binding signal was 5200 fluorescence intensity (a.u.).

Regarding “GAAGTGGAAGAGCTCCACGCCTGTCGAGCTGTCTGCGTCGCGGAGTCACCTAGTGCAG”, the binding signal is 3300 fluorescence intensity (a.u.).

Take “ATGATGCACGACAGGACGACGTGTTTCCACGTGAAACGTCCGGAGTCACCTAGTGCAG”: the binding signal was 5990 fluorescence intensity (a.u.).

For the sequence “CTCGATCATGGCGGACTCGAGCCCCTCCACGTACCTCCGCCGGAGTCACCTAGTGCAG”, the binding signal was 5910 fluorescence intensity (a.u.).

As for “CGTGGTTTATTGTAAAATTAGTGATGTAACAAATAATGTGCGGAGTCACCTAGTGCAG”, the binding signal is 3390 fluorescence intensity (a.u.).

With “TCCACGCACAAACCACGTAAGCACGCACCACCTCGCGCGGCGGAGTCACCTAGTGCAG”, the binding signal is 14700 fluorescence intensity (a.u.).

Regarding “CACTGTCGGCGTGCGCGCCGCGTGCCGCCTCCCGTCCTCTCGGAGTCACCTAGTGCAG”, the binding signal is 3750 fluorescence intensity (a.u.).

Take “TAGATAGTACTAGGTGAAGTTGATGCGTGTTGGTTCACTGCGGAGTCACCTAGTGCAG”: the binding signal is 3490 fluorescence intensity (a.u.).

For the sequence “ACACCGAGCAATGATCATATTGTAATCCTTCCCGTCGCCGCGGAGTCACCTAGTGCAG”, the binding signal was 3400 fluorescence intensity (a.u.).

On to “TGGATTCCCCTCCTTGGAACCACGTCTGCCGCACAGTTCCCGGAGTCACCTAGTGCAG”, for which the binding signal was 3720 fluorescence intensity (a.u.).

In the case of “AAAATGTATGGTTGAAAATGACATCAAAGTGAACAGAACCCGGAGTCACCTAGTGCAG”, the binding signal was 3210 fluorescence intensity (a.u.).

With “TTATCAAGACACACGTGTGTTAACATGACTTGCGCACCTCCGGAGTCACCTAGTGCAG”, the binding signal was 3930 fluorescence intensity (a.u.).

Regarding “CCGTCGTCGACGCTCTGCCTGACGCGGCACCGCATCGCCCCGGAGTCACCTAGTGCAG”, the binding signal was 12000 fluorescence intensity (a.u.).

With “AGTCAACGGTGTCAAACATTTCGAAACGGAGGGAGTAATACGGAGTCACCTAGTGCAG”, the binding signal is 29300 fluorescence intensity (a.u.).

On to “AGCGATCTTACGTGTGTAGTGCTGTGTGTTTATGAGCGTCCGGAGTCACCTAGTGCAG”, for which the binding signal was 6100 fluorescence intensity (a.u.).

For “GCGTGGTGTTTTGCGTCAATTAAAGAATAATTGATGTTGCCGGAGTCACCTAGTGCAG”, the binding signal was 3400 fluorescence intensity (a.u.).

As for “ATCTGCATTTGTTTGTTCCTGTCACCTTTGTACCATCCAACGGAGTCACCTAGTGCAG”, the binding signal is 3720 fluorescence intensity (a.u.).
